Laboratory results taken from patent US11292821B2, “Peptides and combination of peptides for use in immunotherapy against lung cancer, including NSCLC, SCLC and other cancers” (Immatics Biotechnologies GmbH, priority 2017, dated 2022).

System: source genes
Test: Expression profiling of genes encoding the peptides (RNAseq)
Design: species or system human
Conditions: RPKM, FIGS. 2A-2N

Row | Substance | exon expression of source gene in cancer samples versus normal tissues
1 | SEQ ID No.: 222: peptide found in MMP1 (gene looked up) (NPFYPEVEL; listed as Homo sapiens) | over-expressed
2 | SEQ ID No.: 84: peptide found in MMP12 (gene looked up) (YVDINTFRL; listed as Homo sapiens) | over-expressed
3 | SEQ ID No.: 326: peptide found in MMP12 (gene looked up) (QEMQHFLGL; listed as Homo sapiens) | over-expressed
4 | SEQ ID No.: 2: peptide found in MMP12 (gene looked up) (VWSNVTPLKF; listed as Homo sapiens) | over-expressed
5 | SEQ ID No.: 1: peptide found in ADAMTS12 (gene looked up) (QYDPTPLTW; listed as Homo sapiens) | over-expressed

For expression read-outs the peptide stands for its source gene, whose mRNA was measured; the gene is not named for every peptide.
